# From PubChem BioAssay AID590 (National Center for Advancing Translational Sciences (NCATS), 2007)
# The whole screen tested about 59,000 compounds, of which about 6,500 (11%) were called active. Inconclusive means that the source gave no clear call. Such entries were picked first, then a sample of the others. No stated cut-off is given here; in the data, active means max dye-equivalent concentration above about 10 nM; inconclusive means mostly about 1.1 nM to 9.6 nM; inactive means weaker than that.
# Assay: qHTS Assay for Spectroscopic Profiling in A350 Spectral Region
# Settings: Compound autofluorescence, 340/450 nm, Alexa 350 dye-equivalents; hits give high values
row,Structure (SMILES),max dye-equivalent concentration
1,Cc1nn(-c2ccccc2)c2sc(C(=O)OCn3nnc4ccccc4c3=O)cc12,inactive
2,CCOC(=O)CC(=O)CSc1ccc2nnc(-c3ccc(C)cc3)n2n1,inconclusive: 2.1 nM
3,CCC1CCCCN1C(=O)N[C@@H](Cc1ccccc1)C(=O)O (some centres not stated),inconclusive: 1.2 nM
4,CCC(CC)C(=O)Nc1c2c(nn1-c1ccc(OC)cc1)CS(=O)(=O)C2,active: 25 nM
5,O=C(CCN1C(=O)c2ccccc2C1=O)Nc1ccc(-c2nc3ccccc3o2)cc1,inactive
6,Cc1ccc(CNC(=O)CCCNC(=O)c2ccc(Cl)cc2)n1C,inconclusive: 6.1 nM
7,COc1ccc2[nH]c(=O)c(CN(C)C(=O)c3ccncc3)cc2c1,active: 180 nM
8,CCCCOP(=O)(c1ccc(N(C)C)cc1)C(O)c1ccccc1F (configuration not stated),inconclusive: 1.3 nM
9,CC(=O)Nc1cc(NC(C)=O)cc(C(=O)OCC(=O)N2CC(C)OC(C)C2)c1 (configuration not stated),inactive
10,CCN1C(=O)C(NC(C)=O)c2cc(Br)ccc21 (configuration not stated),inconclusive: 3.2 nM
11,CCCCCn1c(SCC2CCCO2)nc2cc(C(=O)N3CCC(C(N)=O)CC3)ccc2c1=O (configuration not stated),inconclusive: 2.7 nM
12,COc1ccc(-c2cc(C(F)(F)F)nc(S(C)(=O)=O)n2)cc1OC,inconclusive: 2.8 nM
13,CN(CCNC(=O)c1ccc(/C=N/O)nc1)Cc1ccccc1,inactive
14,COc1cccc(NC(=O)c2oc3ccccc3c2NC(C)=O)c1,inconclusive: 3.1 nM
15,Cc1cccc2cc(C#N)c(SCC(=O)N3CCC(C)CC3)nc12,inconclusive: 5.5 nM
16,O=C(NCc1ccc(N2CCCC2=O)cc1)c1cn(CCc2ccccc2)nn1,inconclusive: 1.5 nM
17,Cc1cc(C)nc(NC2=NCC(=O)N2CCc2c[nH]c3ccccc23)n1,active: 18 nM
18,O=C(O)CCCCCN=C1CCc2ccccc2N1,inactive
19,N#Cc1ccc(OC(=O)c2ccc(N=C(N)N)cc2)cc1,inconclusive: 1.2 nM

# As a short view, part of the list above:
row,Structure (SMILES),max dye-equivalent concentration
5,O=C(CCN1C(=O)c2ccccc2C1=O)Nc1ccc(-c2nc3ccccc3o2)cc1,inactive
6,Cc1ccc(CNC(=O)CCCNC(=O)c2ccc(Cl)cc2)n1C,inconclusive: 6.1 nM
7,COc1ccc2[nH]c(=O)c(CN(C)C(=O)c3ccncc3)cc2c1,active: 180 nM
8,CCCCOP(=O)(c1ccc(N(C)C)cc1)C(O)c1ccccc1F (configuration not stated),inconclusive: 1.3 nM
9,CC(=O)Nc1cc(NC(C)=O)cc(C(=O)OCC(=O)N2CC(C)OC(C)C2)c1 (configuration not stated),inactive
10,CCN1C(=O)C(NC(C)=O)c2cc(Br)ccc21 (configuration not stated),inconclusive: 3.2 nM
11,CCCCCn1c(SCC2CCCO2)nc2cc(C(=O)N3CCC(C(N)=O)CC3)ccc2c1=O (configuration not stated),inconclusive: 2.7 nM
12,COc1ccc(-c2cc(C(F)(F)F)nc(S(C)(=O)=O)n2)cc1OC,inconclusive: 2.8 nM
13,CN(CCNC(=O)c1ccc(/C=N/O)nc1)Cc1ccccc1,inactive
14,COc1cccc(NC(=O)c2oc3ccccc3c2NC(C)=O)c1,inconclusive: 3.1 nM
15,Cc1cccc2cc(C#N)c(SCC(=O)N3CCC(C)CC3)nc12,inconclusive: 5.5 nM
16,O=C(NCc1ccc(N2CCCC2=O)cc1)c1cn(CCc2ccccc2)nn1,inconclusive: 1.5 nM

# Further structures follow:

row,Structure (SMILES),max dye-equivalent concentration
1,O=C(c1cnccn1)N1CCC2(CCN(Cc3nccs3)CC2)CC1,inactive
2,Cn1nnnc1SCC(=O)Nc1nc(-c2ccccc2)c(-c2ccccc2)o1,inactive
3,O=C(NCCN1CCN(c2cccc(Cl)c2)CC1)c1cccn2c(=O)c3ccccc3nc12,inconclusive: 1.1 nM
4,COc1ccc(Br)cc1C(=O)Nc1cccc(-c2nnc(-c3ccco3)o2)c1,inactive
5,CCOC(=O)CSc1nc(N)c(C#N)c(-c2ccc(OC)cc2)c1C#N,active: 40 nM
6,CC(C)[C@H](NC(=O)OCc1ccccc1)C(=O)N[C@H](C=O)Cc1ccccc1,inactive
7,CCOc1cccc(C(=O)N(Cc2ccco2)C2CCS(=O)(=O)C2)c1 (configuration not stated),inconclusive: 1.5 nM
8,CCCC(C(=O)NCc1ccco1)N(C(=O)CNS(=O)(=O)c1ccccc1)c1ccccc1OC (configuration not stated),inconclusive: 2.3 nM
9,Cc1cc2cc(CN(Cc3ccc4c(c3)OCO4)C(=O)c3ccco3)c(=O)[nH]c2cc1C,inconclusive: 8 nM
10,CCC(C)Sc1nc2c(c(=O)[nH]c(=O)n2C)n1CC(O)COc1cccc2ccccc12 (configuration not stated),inactive
11,O=c1c(-c2ccc(F)cc2)nc2cnc(N3CCOCC3)nc2n1C1CC1,active: 15 nM
12,O=C(NCCN1CCCC1)c1ccc2c(=O)n(CCc3ccccc3)c(=O)[nH]c2c1,active: 24 nM
13,Clc1ccccc1-c1nnc2sc(-c3ccccn3)nn12,inconclusive: 4 nM
14,CC(=O)c1sc(NC(=O)c2ccc(Cn3cc(Br)cn3)o2)nc1C,inconclusive: 3 nM
15,CCOC(=O)c1sc2nc(N3CCOCC3)c3c(c2c1N)CCCC3,active: 600 nM
16,CC(=O)c1c(C)[nH]c(C(=O)OC2CCCCC2=O)c1C (configuration not stated),inconclusive: 1.2 nM
17,Cc1cc(=O)oc(C)c1C(=O)Nc1ccc2nsnc2c1,active: 66 nM
18,CCn1cc(C(=O)N2CCN(Cc3ccc4c(c3)OCO4)CC2)c2cc(OC)c(OC)cc2c1=O,inactive
19,Cc1nc(SCC(=O)N2CCCc3ccccc32)c2oc3ccccc3c2n1,active: 12 nM

row,Structure (SMILES),max dye-equivalent concentration
1,Cc1cccc(-c2noc(CCC(=O)Nc3ccccc3)n2)c1,inconclusive: 5.6 nM
2,COCCn1c(=O)c(-c2ccc(F)cc2)nc2cnc(Oc3ccc(OC)cc3)nc21,inactive
3,CC(OC(=O)CCCN1C(=O)c2ccccc2C1=O)C(=O)Nc1ncc(Cl)cc1Cl (configuration not stated),inconclusive: 4.9 nM
4,c1ccc(-c2cnnc(SCc3cn4cccnc4n3)n2)cc1,active: 160 nM
5,O=C(O)CN(Cc1ccccc1)S(=O)(=O)c1ccc(F)cc1,inconclusive: 7.1 nM
6,COc1ccc2c(Cc3c4ccccc4cc4ccccc34)cncc2c1O,inconclusive: 1.5 nM
7,CCOC(=O)CNC(=O)CSc1nnc(-c2cccc(OC)c2)n1CC,inactive
8,COc1cccc(C2C(C(=O)c3cc4ccccc4o3)=C(O)C(=O)N2CCN(C)C)c1OC (configuration not stated),inconclusive: 4.5 nM
9,CCCC(=O)Nc1cc(C)c(NC(=O)Cc2ccccc2)cn1,inconclusive: 1.1 nM
10,Cc1cc2c(c(=O)n1Cc1cccnc1)C(c1ccc(F)cc1)C(C#N)=C(N)O2 (configuration not stated),inconclusive: 2.1 nM
11,CC1CC(C)CN(C(=O)CCCn2c(=S)[nH]c3ccccc3c2=O)C1 (configuration not stated),inconclusive: 1.7 nM
12,Cc1cccc(N2CCN(C(=O)CCNC(=O)Cn3ccc4ccccc4c3=O)CC2)c1C,inactive
13,CC(=O)OCC1OC(n2ccc(=O)[nH]c2=O)C(O)C1O (configuration not stated),inconclusive: 1.3 nM
14,CC(NCCc1ccc(O)cc1)C(O)c1ccc(O)cc1 (configuration not stated),inconclusive: 5.9 nM
15,CCOC(=O)C1=C(N)OC2=C(C(=O)CC(C)(C)C2)C1c1cccnc1 (configuration not stated),inactive
16,CC(=O)Nc1nc2n(n1)C(c1ccc(Cl)cc1)C=C(C)N2 (configuration not stated),active: 1800 nM
17,O=c1c2oc3ccccc3c2ncn1Cc1ccccc1F,inconclusive: 1.3 nM
18,O=C(C[N+]12CN3CN(CN(C3)C1)C2)c1ccc(-c2ccccc2)cc1,inactive
19,COc1ccc(-c2noc(CN3C(=O)c4ccccc4C3=O)n2)cc1,inconclusive: 2.3 nM
